± gives the standard deviation of the averaged measurements. The list shows a part of the results.
Compound: Nc1nc2c(ncn2[C@@H]2O[C@H](COP(=O)(O)OP(=O)(O)OP(=O)(O)O)[C@@H](O)[C@H]2O)c(=O)[nH]1 [guanosine triphosphate]
Test: NP40-soluble protein abundance relative to vehicle (solubility fold change) (ratio); higher = more soluble protein in presence of GTP
Details: concentration: 10mM
In short: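 Values are fold changes against the detergent-processed vehicle, based on vsn-normalised intensities. Jurkat crude lysate was treated at eight concentrations from 0.1 to 10 mM (10 min at room temperature, then 3 min at 37 °C), solubilised with 0.8% NP40 and benzonase, ultracentrifuged and analysed by TMT-labelled LC-MS/MS over three independent experiments.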

Chains of the proteins cited; added tags and fusions are not shown. Lines headed by an entry give the natural chain unless they say otherwise; changes in a name come on top.
UniProt P52566: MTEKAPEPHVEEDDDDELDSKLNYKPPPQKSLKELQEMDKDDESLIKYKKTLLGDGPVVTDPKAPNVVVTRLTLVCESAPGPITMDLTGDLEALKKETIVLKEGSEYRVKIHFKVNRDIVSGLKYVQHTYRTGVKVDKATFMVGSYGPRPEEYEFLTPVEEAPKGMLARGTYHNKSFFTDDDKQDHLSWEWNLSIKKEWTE
UniProt Q9Y485, whole entry: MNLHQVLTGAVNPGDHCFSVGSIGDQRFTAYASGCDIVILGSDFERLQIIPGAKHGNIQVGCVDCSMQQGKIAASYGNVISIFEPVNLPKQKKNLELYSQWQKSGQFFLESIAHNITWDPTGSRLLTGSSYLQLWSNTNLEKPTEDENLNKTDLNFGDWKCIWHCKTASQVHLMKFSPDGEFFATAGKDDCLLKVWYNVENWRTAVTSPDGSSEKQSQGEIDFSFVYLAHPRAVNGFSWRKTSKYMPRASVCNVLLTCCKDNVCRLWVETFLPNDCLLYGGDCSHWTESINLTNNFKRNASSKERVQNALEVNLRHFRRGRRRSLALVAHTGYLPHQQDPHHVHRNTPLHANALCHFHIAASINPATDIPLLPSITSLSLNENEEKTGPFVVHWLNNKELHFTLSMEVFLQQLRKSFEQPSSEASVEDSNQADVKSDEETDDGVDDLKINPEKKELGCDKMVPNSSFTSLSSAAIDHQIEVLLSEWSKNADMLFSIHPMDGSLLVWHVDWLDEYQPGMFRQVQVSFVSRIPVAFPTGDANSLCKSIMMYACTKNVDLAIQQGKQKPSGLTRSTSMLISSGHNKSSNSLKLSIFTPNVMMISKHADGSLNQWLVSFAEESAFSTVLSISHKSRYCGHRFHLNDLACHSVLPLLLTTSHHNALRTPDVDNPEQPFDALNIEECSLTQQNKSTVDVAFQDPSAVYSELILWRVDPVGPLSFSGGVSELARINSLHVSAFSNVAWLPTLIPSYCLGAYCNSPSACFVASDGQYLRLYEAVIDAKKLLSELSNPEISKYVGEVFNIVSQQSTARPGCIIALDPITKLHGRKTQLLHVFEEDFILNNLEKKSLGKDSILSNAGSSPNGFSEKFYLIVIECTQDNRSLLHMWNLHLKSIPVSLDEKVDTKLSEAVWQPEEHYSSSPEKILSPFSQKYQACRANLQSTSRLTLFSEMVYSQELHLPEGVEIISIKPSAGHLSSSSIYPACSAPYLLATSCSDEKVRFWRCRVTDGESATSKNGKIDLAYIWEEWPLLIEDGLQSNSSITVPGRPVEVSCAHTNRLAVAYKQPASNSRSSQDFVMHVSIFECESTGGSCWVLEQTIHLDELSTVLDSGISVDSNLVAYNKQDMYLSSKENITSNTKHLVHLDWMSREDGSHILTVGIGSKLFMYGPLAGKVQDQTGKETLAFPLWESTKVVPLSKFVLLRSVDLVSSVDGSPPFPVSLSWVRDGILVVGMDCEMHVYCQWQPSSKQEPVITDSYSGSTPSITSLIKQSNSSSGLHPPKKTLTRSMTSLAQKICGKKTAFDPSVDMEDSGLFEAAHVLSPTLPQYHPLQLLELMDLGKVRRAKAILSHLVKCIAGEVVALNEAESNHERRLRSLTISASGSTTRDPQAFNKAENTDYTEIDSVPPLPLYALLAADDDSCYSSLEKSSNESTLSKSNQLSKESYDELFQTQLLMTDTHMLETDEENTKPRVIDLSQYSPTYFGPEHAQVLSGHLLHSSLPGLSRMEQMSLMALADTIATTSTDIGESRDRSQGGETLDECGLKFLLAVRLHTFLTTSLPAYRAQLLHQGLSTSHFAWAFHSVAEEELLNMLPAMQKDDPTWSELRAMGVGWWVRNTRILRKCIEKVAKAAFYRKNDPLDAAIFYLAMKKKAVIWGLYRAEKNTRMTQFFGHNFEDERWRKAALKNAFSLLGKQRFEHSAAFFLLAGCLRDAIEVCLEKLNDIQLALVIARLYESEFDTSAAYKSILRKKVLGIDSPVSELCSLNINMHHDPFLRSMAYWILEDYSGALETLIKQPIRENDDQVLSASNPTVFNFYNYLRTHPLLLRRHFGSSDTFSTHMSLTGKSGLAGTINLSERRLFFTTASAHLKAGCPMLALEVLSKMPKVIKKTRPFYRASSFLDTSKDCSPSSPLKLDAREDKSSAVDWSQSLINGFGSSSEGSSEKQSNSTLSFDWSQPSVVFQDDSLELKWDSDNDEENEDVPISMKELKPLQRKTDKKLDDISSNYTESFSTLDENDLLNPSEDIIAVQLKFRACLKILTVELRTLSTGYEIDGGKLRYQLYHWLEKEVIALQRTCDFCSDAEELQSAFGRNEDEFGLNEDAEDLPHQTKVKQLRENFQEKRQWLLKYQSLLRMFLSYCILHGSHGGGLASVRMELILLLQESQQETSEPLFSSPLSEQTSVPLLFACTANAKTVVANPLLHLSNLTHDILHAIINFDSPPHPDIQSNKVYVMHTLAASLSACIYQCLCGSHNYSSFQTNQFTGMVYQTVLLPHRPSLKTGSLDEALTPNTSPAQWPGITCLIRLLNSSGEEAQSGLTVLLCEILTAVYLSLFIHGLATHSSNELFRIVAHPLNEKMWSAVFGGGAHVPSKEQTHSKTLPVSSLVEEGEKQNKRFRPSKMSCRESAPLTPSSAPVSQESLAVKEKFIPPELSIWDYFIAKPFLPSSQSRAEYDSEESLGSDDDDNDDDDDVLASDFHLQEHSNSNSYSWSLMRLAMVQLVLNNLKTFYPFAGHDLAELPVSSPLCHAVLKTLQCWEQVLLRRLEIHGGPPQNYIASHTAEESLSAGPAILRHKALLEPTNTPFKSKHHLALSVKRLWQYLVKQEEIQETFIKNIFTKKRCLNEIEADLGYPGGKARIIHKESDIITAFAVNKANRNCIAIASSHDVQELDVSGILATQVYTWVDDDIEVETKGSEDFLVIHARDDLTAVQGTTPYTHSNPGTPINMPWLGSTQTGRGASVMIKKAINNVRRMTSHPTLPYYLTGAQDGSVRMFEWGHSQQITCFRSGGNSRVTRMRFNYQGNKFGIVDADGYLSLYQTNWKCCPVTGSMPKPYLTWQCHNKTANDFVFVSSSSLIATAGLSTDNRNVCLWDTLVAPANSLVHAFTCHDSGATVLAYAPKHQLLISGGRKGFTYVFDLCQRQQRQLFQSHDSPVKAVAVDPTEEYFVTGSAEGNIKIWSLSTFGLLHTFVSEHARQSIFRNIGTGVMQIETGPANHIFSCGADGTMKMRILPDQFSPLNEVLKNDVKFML
UniProt Q9H3J6: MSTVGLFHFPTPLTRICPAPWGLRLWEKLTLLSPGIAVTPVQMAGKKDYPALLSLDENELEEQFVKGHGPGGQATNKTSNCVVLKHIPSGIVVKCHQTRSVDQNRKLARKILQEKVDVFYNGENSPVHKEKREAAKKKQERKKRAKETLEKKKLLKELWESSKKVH
UniProt Q9Y6M9, whole entry: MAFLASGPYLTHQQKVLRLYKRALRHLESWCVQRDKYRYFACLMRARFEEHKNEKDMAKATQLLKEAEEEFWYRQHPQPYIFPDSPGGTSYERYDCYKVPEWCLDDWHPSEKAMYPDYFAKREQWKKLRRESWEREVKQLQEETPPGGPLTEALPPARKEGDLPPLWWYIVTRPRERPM
UniProt Q86VM9: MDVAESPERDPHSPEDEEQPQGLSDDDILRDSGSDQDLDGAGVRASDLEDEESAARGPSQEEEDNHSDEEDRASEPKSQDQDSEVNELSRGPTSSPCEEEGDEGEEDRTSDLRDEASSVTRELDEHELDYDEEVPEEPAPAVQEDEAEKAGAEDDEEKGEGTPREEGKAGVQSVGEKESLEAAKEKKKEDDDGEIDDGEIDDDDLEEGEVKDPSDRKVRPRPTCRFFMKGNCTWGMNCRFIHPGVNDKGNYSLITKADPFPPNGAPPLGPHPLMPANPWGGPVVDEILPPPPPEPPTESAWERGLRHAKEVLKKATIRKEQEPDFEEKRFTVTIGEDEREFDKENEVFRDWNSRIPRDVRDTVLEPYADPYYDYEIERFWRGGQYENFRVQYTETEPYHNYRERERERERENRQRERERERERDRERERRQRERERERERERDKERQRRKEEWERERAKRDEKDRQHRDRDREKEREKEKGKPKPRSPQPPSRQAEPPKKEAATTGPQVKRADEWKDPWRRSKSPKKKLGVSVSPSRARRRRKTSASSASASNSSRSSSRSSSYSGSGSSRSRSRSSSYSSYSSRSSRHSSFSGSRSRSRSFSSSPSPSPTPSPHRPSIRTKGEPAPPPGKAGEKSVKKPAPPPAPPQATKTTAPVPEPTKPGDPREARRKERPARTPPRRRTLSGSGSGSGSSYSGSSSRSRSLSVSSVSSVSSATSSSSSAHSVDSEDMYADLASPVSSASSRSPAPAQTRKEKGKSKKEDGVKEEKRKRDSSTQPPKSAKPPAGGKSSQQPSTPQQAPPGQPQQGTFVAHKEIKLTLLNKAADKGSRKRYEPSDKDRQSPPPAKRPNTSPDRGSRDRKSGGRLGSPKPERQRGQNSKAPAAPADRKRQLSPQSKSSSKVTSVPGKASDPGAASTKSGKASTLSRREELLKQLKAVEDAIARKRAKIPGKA
UniProt Q9H0K6: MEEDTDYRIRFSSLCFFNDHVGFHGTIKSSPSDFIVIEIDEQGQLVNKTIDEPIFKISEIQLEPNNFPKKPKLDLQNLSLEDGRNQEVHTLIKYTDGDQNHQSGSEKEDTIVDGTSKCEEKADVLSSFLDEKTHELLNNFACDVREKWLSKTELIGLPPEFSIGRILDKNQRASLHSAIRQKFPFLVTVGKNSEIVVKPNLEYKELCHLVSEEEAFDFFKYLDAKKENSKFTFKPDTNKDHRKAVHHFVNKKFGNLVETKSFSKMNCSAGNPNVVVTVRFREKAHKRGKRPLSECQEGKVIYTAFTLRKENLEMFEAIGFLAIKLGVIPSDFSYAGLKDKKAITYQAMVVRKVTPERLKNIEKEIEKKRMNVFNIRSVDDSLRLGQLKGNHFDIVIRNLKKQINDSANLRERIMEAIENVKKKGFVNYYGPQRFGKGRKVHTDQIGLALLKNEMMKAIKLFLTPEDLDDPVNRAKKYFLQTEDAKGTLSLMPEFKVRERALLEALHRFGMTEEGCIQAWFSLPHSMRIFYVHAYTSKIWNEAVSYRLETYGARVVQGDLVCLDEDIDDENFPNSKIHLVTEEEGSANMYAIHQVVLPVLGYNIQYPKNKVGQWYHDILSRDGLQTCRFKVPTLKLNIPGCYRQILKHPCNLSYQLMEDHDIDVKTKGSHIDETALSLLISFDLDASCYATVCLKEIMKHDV
UniProt O94830: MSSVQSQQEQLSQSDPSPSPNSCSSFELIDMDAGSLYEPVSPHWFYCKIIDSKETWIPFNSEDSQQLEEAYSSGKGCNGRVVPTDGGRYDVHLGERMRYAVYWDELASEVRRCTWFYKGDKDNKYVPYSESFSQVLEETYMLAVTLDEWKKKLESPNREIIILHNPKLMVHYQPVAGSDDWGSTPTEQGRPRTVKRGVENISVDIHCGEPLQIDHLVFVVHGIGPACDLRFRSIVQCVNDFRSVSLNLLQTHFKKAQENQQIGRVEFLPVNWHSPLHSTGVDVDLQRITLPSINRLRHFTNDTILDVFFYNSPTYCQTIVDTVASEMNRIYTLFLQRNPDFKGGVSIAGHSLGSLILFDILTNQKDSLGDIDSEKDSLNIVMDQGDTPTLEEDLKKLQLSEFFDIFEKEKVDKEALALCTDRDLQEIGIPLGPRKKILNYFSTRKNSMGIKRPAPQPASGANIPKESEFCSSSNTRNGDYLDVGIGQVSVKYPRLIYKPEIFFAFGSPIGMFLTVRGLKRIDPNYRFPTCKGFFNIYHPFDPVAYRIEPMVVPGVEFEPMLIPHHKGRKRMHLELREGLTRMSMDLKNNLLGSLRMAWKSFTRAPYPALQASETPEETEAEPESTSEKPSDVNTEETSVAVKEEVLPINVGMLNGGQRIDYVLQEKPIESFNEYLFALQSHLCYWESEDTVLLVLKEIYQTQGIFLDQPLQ
UniProt Q9NUW8, whole entry: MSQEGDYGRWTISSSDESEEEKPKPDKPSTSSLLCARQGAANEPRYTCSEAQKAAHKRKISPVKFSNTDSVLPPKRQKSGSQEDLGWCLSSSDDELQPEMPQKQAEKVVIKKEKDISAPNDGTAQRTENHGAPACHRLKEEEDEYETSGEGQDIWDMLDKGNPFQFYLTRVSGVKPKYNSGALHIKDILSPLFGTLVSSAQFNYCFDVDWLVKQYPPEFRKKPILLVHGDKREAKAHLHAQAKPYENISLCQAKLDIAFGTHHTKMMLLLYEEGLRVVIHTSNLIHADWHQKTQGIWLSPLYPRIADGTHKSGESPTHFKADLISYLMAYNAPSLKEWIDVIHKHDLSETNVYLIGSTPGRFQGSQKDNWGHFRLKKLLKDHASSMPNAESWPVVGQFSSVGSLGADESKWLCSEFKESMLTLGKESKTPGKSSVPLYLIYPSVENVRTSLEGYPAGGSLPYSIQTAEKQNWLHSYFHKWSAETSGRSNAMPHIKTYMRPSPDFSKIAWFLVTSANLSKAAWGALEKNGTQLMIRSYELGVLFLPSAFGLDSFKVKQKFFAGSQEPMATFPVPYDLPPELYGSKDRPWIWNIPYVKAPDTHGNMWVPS

| Target | NP40-soluble protein abundance |
| --- | --- |
| E9PCW1 and related entries (UniProt O95249) | 0.97 ± 0.034 |
| E7EPT4 and related entries (UniProt P19404) | 1.24 ± 0.24 |
| F5GZZ0 and related entries (UniProt Q6NS38) | 0.991 ± 0.021 |
| E7ESS2 and related entries (UniProt O95819) | 0.996 ± 0.06 |
| F5H2R5 and related entries (UniProt P52566) | 0.839 ± 0.085 |
| E9PMI6 and related entries (UniProt P54105) | 1.03 ± 0.017 |
| F5H1M8 and related entries (UniProt Q96MG8) | 0.812 ± 0.084 |
| E7ESG2 and related entries (UniProt Q9HAW4) | 1.02 ± 0.056 |
| E7ETP9 and related entries (UniProt Q9UQV4) | 0.881 ± 0.17 |
| E9PCG9 and related entries (UniProt Q02338) | 0.934 ± 0.096 |
| F8VV56 and related entries (UniProt P08962) | 0.924 ± 0.063 |
| E9PGC0 and related entries (UniProt P20936) | 0.899 ± 0.031 |
| F5H269 and related entries (UniProt Q9Y485) | 1.11 ± 0.11 |
| F5GZG1 and related entries (UniProt P61224) | 0.907 ± 0.17 |
| F5GWJ6 and related entries (UniProt Q9H3J6) | 1.48 ± 0.11 |
| E9PH64 and related entries (UniProt Q9Y6M9) | 1.34 ± 0.086 |
| F8W8C2 and related entries (UniProt Q9HBM0) | 0.889 ± 0.049 |
| E9PKV2 and related entries (UniProt Q9NRX2) | 1.27 ± 0.53 |
| F5H365 and related entries (UniProt Q15436) | 0.906 ± 0.022 |

As a working copy, some entries already given.

| Target | NP40-soluble protein abundance |
| --- | --- |
| F5GWJ6 and related entries (UniProt Q9H3J6) | 1.48 ± 0.11 |
| E9PH64 and related entries (UniProt Q9Y6M9) | 1.34 ± 0.086 |

Carrying on:

| Target | NP40-soluble protein abundance |
| --- | --- |
| F6V2D4 and related entries (UniProt O00214) | 0.923 ± 0.1 |
| F2Z2W7 and related entries (UniProt Q8IZ69) | 1.11 ± 0.032 |
| E7ERS3 and related entries (UniProt Q86VM9) | 1.36 ± 0.16 |
| G3V502 and related entries (UniProt Q9Y5J7) | 1.19 ± 0.034 |
| F8WDV0 and related entries (UniProt Q9UI26) | 0.975 ± 0.1 |
| G3XAI9 and related entries (UniProt Q5BKY9) | 0.817 ± 0.083 |
| UniProt E9PSI1 | 1.09 ± 0.077 |
| F8WCU9 and related entries (UniProt Q68CP9) | 1.45 ± 0.23 |
| F8VZA0 and related entries (UniProt Q9H0K6) | 0.9677 ± 0.0093 |
| E9PK57 and related entries (UniProt O94830) | 0.984 ± 0.057 |
| E9PHH9 and related entries (UniProt Q9BUI4) | 0.994 ± 0.056 |
| F8VQE1 and related entries (UniProt Q9UHB6) | 2.21 ± 0.23 |
| E9PI30 and related entries (UniProt P56202) | 1.02 ± 0.021 |
| F5GZ90 and related entries (UniProt Q9NZJ0) | 0.958 ± 0.086 |
| F8W8G5 and related entries (UniProt P10242) | 1.13 ± 0.051 |
| E7EWW0 and related entries (UniProt Q7Z3J2) | 0.986 ± 0.053 |
| E7EPD8 and related entries (UniProt Q9NUW8) | 0.964 ± 0.057 |
| E9PEL3 and related entries (UniProt P61513) | 0.843 ± 0.14 |
